Data from paper PMC10351472.
No constants are given. Whether binding was seen depends on the method and setting. In cells and extracts the contact can be indirect. Binding can be weak; no strength is given. For part of these data: Tags and fused reporters may be left off the sequences shown.

Chains of the proteins cited; added tags and fusions are not shown.
UniProt O95817: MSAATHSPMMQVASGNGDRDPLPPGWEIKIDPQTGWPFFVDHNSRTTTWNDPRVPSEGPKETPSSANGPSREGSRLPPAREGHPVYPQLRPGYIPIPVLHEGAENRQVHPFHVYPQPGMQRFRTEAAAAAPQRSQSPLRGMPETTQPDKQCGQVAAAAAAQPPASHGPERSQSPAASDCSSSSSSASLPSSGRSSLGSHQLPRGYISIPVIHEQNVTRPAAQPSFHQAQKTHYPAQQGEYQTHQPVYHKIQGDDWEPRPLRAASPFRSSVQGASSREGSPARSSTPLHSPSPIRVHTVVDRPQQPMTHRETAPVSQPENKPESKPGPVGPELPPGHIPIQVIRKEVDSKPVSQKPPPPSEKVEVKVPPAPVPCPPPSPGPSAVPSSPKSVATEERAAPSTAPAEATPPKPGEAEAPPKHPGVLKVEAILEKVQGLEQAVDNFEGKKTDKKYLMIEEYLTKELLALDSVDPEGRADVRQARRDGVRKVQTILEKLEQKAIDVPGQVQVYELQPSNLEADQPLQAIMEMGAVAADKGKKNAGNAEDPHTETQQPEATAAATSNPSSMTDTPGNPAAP

Columns and labels:
[1] = target: T1, V5-tagged HSPB8_WT (heat shock protein family B (small) member 8, wild-type) (human) (UniProt Q9UJY1); experiment: co-IP; RIPA-soluble extracts of HEK293T-HSPB8-WT-V5 cells transfected with untagged pCi-HSPB8 constructs, 48 h; anti-V5 (D3H8Q) antibody on Protein A magnetic beads; western blot
T1 sequence: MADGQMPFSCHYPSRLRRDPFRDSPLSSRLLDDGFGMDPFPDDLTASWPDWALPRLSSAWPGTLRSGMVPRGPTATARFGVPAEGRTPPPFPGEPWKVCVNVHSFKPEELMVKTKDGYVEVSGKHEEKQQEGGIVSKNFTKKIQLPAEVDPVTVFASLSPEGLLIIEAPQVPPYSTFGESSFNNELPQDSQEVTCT

[2] = target: BAG3 (BAG cochaperone 3) (human (endogenous in HEK293T)) (UniProt O95817); experiment: co-IP; RIPA-soluble extracts of HEK293T-HSPB8-WT-V5 cells transfected with untagged pCi-HSPB8 constructs, 48 h; anti-BAG3 (Abcam ab47124) antibody on Protein A magnetic beads; western blot

| binding [1] | binding [2] | Substance |
| --- | --- | --- |
| binds | binds | untagged HSPB8_fs mutant p.P173Sfs*43 (from UniProt Q9UJY1) |
| binds | binds | untagged HSPB8_fs mutant p.Q170Gfs*45 (from UniProt Q9UJY1) |
| binds | binds | untagged HSPB8_fs mutant p.T194Sfs*23 (from UniProt Q9UJY1) |
